# Source: PubChem BioAssay AID2685 (National Center for Advancing Translational Sciences (NCATS), 2010)
# Some of the results follow. The main result of the screen is listed elsewhere. These columns were measured beside it and carry no call. Compounds called inactive in the main read-out are mostly missing here. The note in brackets gives the kind of curve behind each potency; many fits are weak.
# Experiment: qHTS Assay for Lipid Storage Modulators in Drosophila S3 Cells;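 on cell number change: cells counted by Cell Tracker Red CMTPX staining in the red channel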
# Conditions: BODIPY lipid droplet fluorescence, 18-24 h; for cell number change: measured here: cell count max response, cells fed with added oleic acid
# Method in brief: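 Drosophila S3 cells got compounds at several concentrations plus oleic acid (400 uM solution). Laser-scanning cytometry with 488 nm excitation read lipid droplets at 500-530 nm and cells at 575-640 nm. Percent activity was relative to 20 uM Triacsin C.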
# [1] = measured here: cell number channel AC50, cells fed with added oleic acid
# [2] = measured here: lipid fluorescence (Fed channel) AC50, cells fed with added oleic acid
SMILES,cell number change [%],AC50 [1],AC50 [2]
CCN1/C(=N\N)c2cccc3cccc1c23,-15.1,"2.59 µM [falling, single point]","5.17 µM [falling, single point]"
Nc1cccc(CN2CCCC2)c1,-24,,"7.31 µM [falling, full curve, poor fit]"
Cc1cc(C)c(C)c(S(=O)(=O)N2CCN(C(=O)c3cc(=O)[nH]c4ccccc34)CC2)c1C,-0.0645,,"3.26 µM [rising, single point]"
O=C(Nc1nc(-c2ccco2)c(-c2ccco2)s1)C1CC(=O)N(c2ccc3c(c2)OCCO3)C1 (stereo not given),,"6.51 µM [rising, single point]","6.51 µM [rising, single point]"
Cc1cc(-c2ccco2)n(CC(=O)NCc2ccccc2)n1,-8.6,,"0.58 µM [falling, single point]"
O=C(Nc1ccc(N2CCOCC2)cc1)c1cccc(S(=O)(=O)N2CCCCCC2)c1,-88.1,"18.4 µM [falling, single point]","29.1 µM [falling, single point]"
Cn1c(=NC(=O)c2ccc(S(=O)(=O)N3CCCc4ccccc43)cc2)sc2cc(S(C)(=O)=O)ccc21,-6.13,,
CN(C)c1ccc(-c2nc3cnccn3c2Nc2ccc3c(c2)OCCO3)cc1,,,"3.66 µM [falling, single point]"
CSc1ccccc1NC(=O)COC(=O)CCCOc1ccc(C)cc1,-12,,
COc1ccc2nc(C)cc(N/N=C/c3ccc(F)cc3)c2c1,-32,"14.6 µM [falling, single point]","1.64 µM [falling, partial curve]"
COc1ccc(OC)c(C(=O)NC(CC(N)=O)c2ccc(NCc3ccc(F)c(F)c3)c([N+](=O)[O-])c2)c1 (stereo not given),24.6,"5.17 µM [rising, partial curve]",
COc1cc(NC(=O)Cc2cccs2)ccc1-n1cnnn1,76,"0.326 µM [rising, full curve]","0.461 µM [rising, full curve]"
CCOC(=O)N1CCN(C(=O)C2CCN(S(=O)(=O)c3cc(C)ccc3OC)CC2)CC1,35.1,"10.3 µM [rising, partial curve]",
COc1cc(NC(=S)NC(=O)c2cc(C)cc(C)c2)ccc1NC(=O)c1cccs1,-19.9,,"18.4 µM [falling, single point]"
O=C(CC(O)(C(F)(F)F)C(F)(F)F)Nc1ccc(Cl)c(Cl)c1,,"5.8 µM [falling, single point]","5.8 µM [falling, full curve]"
CN1C=CC=C/C1=C1\SC(=S)N(Cc2ccccc2)C1=O,-49.3,,"29.1 µM [falling, single point]"
CC(C)CN(C(=O)C1CCCCC1)C1CCS(=O)(=O)C1 (stereo not given),-51.3,"25.9 µM [falling, partial curve, poor fit]","23.1 µM [falling, partial curve]"
Cc1cccn2c(=O)c3cc(C(=O)NCCCOC(C)C)sc3nc12,29.7,,

# Quoted at random: two entries already listed
SMILES,cell number change [%],AC50 [1],AC50 [2]
Cc1cc(C)c(C)c(S(=O)(=O)N2CCN(C(=O)c3cc(=O)[nH]c4ccccc34)CC2)c1C,-0.0645,,"3.26 µM [rising, single point]"
O=C(CC(O)(C(F)(F)F)C(F)(F)F)Nc1ccc(Cl)c(Cl)c1,,"5.8 µM [falling, single point]","5.8 µM [falling, full curve]"

# Following part.

SMILES,cell number change [%],AC50 [1],AC50 [2]
Cc1ccccc1OCc1n[nH]c(=S)n1-c1cccc(Cl)c1,-29.7,,"0.58 µM [falling, single point]"
CCOC(=O)/C(=N\Nc1ccccc1)c1csc(Nc2ccc(C)cc2)n1,-45.9,,"1.84 µM [rising, partial curve]"
Cc1ccc(C(=O)c2coc3ccc(O)c(Cl)c23)cc1,-81.1,"18.4 µM [falling, partial curve]","23.1 µM [falling, partial curve]"
N/C(=N\OC(=O)CCCOc1ccccc1)c1cccc(Br)c1,-1.25,,
CCOc1cc(C(=O)N(CC)CC(=O)Nc2c(F)cccc2F)ccc1OCC(=O)N1CCOCC1,,"0.13 µM [falling, full curve, poor fit]",
CCc1ccc2oc(-c3cccc(NC(=O)c4cccnc4)c3)nc2c1,-56,"16.4 µM [falling, partial curve]","18.4 µM [falling, single point]"
Cc1ccc(C(=O)N2CCCC(CCC(=O)N3CCN(c4ccccn4)CC3)C2)cn1 (stereo not given),-8.62,,"29.1 µM [falling, single point]"
CC(NC(=O)C1(S(=O)(=O)c2ccc(Cl)cc2)CC1)c1ccccc1 (stereo not given),-54.9,"32.6 µM [falling, single point]","0.00651 µM [falling, full curve, poor fit]"
CCOC(=O)c1[nH]c(C)c(C(=O)N(CC)CC)c1C,-19.7,,"7.31 µM [rising, partial curve]"
CCOC(=O)C1CCN(S(=O)(=O)c2cccc3nonc23)CC1,13.6,,"29.1 µM [rising, single point]"
COC(=O)c1c2c(nc3ccccc13)CCC2,-8.26,,"16.4 µM [rising, partial curve, poor fit]"
CC1=C2C(=O)OC(c3ccoc3)C2(C)CCC1 (stereo not given),15,"0.651 µM [falling, single point]","3.26 µM [falling, single point]"
CN(C)NC(=S)NC1(C)CCS(=O)(=O)C1 (stereo not given),-8.77,,"0.116 µM [falling, full curve]"
C/C(CC(=O)Nc1ccc(Cl)cc1Cl)=N\NC(=O)c1ccco1,26.5,,"18.4 µM [rising, partial curve]"
Cc1ccccc1-n1nc2c(c1NC(=O)c1ccc3c(c1)OCO3)CS(=O)(=O)C2,22.8,,"18.4 µM [rising, single point]"
Cn1c(=O)c2c(nc(Cl)n2CC(=O)NC2(C#N)CCCCC2)n(C)c1=O,33,"25.9 µM [rising, single point]",
Cc1nc(NC(=O)c2ccco2)sc1C(=O)O,-3.48,,"29.1 µM [falling, single point]"
CCCc1noc2c1C(c1cc(Br)ccc1F)C(C#N)=C(N)N2 (stereo not given),-5.1,,"0.731 µM [rising, partial curve, poor fit]"
